PubChem BioAssay AID256 (DTP/NCI, 2004)
The list shows only some results of the screen, not a fair sample: it is rich in T/C values a quarter to a half above the control, in often repeated tests (any T/C) and in doses without a T/C. Further doses and runs are listed elsewhere. T/C is the treated group as % of the vehicle group. Some doses have a count of surviving animals in place of a T/C: the source holds a T/C of zero for them, seemingly a mark for toxic or unscored doses. Some survivor counts are full or nearly so, which does not show that the dose was tolerated: the source hardly ever lists a survival T/C far under the control, and the zero likely stands for such cases as well. Survivors were counted at the toxicity check, usually on the fifth day, unless a day is given; later deaths do not show. Schedule codes are those of the source, read here as Q, the interval in days (D) or hours (H), X, the number of doses. Some doses were run more than once; their values stand side by side, smallest first. Where survival is the endpoint, this PubChem deposit counts one and a half times the control or more as active, and values a quarter to a half above the control carry no call in these data; other NCI protocols may use other cut-offs.

System: CD2F1 mice, L1210 leukemia ip, survival T/C
Experiment: NCI In Vivo Anticancer Drug Screen. Data for tumor model L1210 Leukemia (intraperitoneal) in CD2F1 (CDF1) mice
Conditions: higher T/C = longer survival
Procedure, shortened: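 Each value reflects a quotient of treated over vehicle control outcomes in mice with a transplanted tumor.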

[1] = T/C endpoint: mean survival time, dose: 50.0 mg/kg/injection, schedule: Q01DX009 (ip), vehicle: saline
[2] = T/C endpoint: mean survival time, dose: 400.0 mg/kg/injection, schedule: Q01DX009 (ip), vehicle: other
[3] = T/C endpoint: mean survival time, dose: 400.0 mg/kg/injection, schedule: Q04DX003 (ip), vehicle: saline with Tween-80
[4] = T/C endpoint: mean survival time, dose: 50.0 mg/kg/injection, schedule: Q01DX009 (ip), vehicle: water
[5] = T/C endpoint: mean survival time, dose: 100.0 mg/kg/injection, schedule: Q01DX009 (ip), vehicle: water
[6] = T/C endpoint: mean survival time, dose: 200.0 mg/kg/injection, schedule: Q01DX009 (ip), vehicle: water
[7] = T/C endpoint: mean survival time, dose: 200.0 mg/kg/injection, schedule: Q04DX003 (ip), vehicle: saline
[8] = T/C endpoint: mean survival time, dose: 400.0 mg/kg/injection, schedule: Q04DX003 (ip), vehicle: saline
[9] = T/C endpoint: mean survival time, dose: 50.0 mg/kg/injection, schedule: Q01DX009 (ip), vehicle: saline with Tween-80
[10] = T/C endpoint: mean survival time, dose: 400.0 mg/kg/injection, schedule: Q01DX009 (ip), vehicle: saline with Tween-80
[11] = T/C endpoint: mean survival time, dose: 400.0 mg/kg/injection, schedule: Q04DX002 (ip), vehicle: saline with Tween-80

Compound: N=[N+]=CC(=O)OCC(N)C(=O)O (configuration not stated)
- T/C (T/C endpoint: mean survival time, dose: 0.5 mg/kg/injection, schedule: Q03HX024 (ip), vehicle: saline): 136 and 139 % of control
- T/C (T/C endpoint: mean survival time, dose: 1.0 mg/kg/injection, schedule: Q03HX024 (ip), vehicle: saline): 129 and 141 % of control
- T/C (T/C endpoint: mean survival time, dose: 5.0 mg/kg/injection, schedule: Q01DX009 (ip), vehicle: saline): 144 % of control
- T/C (T/C endpoint: mean survival time, dose: 6.25 mg/kg/injection, schedule: Q01DX007 (ip), vehicle: saline): 134 % of control
- T/C (T/C endpoint: mean survival time, dose: 6.25 mg/kg/injection, schedule: Q01DX009 (ip), vehicle: saline): 142 % of control
- T/C (T/C endpoint: mean survival time, dose: 10.0 mg/kg/injection, schedule: Q01DX009 (ip), vehicle: saline): 134 % of control
- T/C (T/C endpoint: mean survival time, dose: 12.5 mg/kg/injection, schedule: Q01DX007 (ip), vehicle: saline): 142 and 143 % of control
- T/C (T/C endpoint: mean survival time, dose: 12.5 mg/kg/injection, schedule: Q01DX009 (ip), vehicle: saline): 140 % of control
- T/C (T/C endpoint: mean survival time, dose: 12.5 mg/kg/injection, schedule: Q03DX003 (ip), vehicle: saline): 129 % of control
- T/C (T/C endpoint: mean survival time, dose: 12.5 mg/kg/injection, schedule: Q04DX003 (ip), vehicle: saline): 125 % of control
- survivor count (T/C endpoint: mean survival time, dose: 16.0 mg/kg/injection, schedule: Q03HX016 (ip), vehicle: saline): 6 of 6
- survivor count (T/C endpoint: mean survival time, dose: 16.0 mg/kg/injection, schedule: Q03HX024 (ip), vehicle: saline): 5 of 10 and 10 of 10
- T/C (T/C endpoint: mean survival time, dose: 20.0 mg/kg/injection, schedule: Q01DX009 (ip), vehicle: saline): 146 % of control
- T/C (T/C endpoint: mean survival time, dose: 25.0 mg/kg/injection, schedule: Q01DX007 (ip), vehicle: saline): 145 % of control
- survivor count (T/C endpoint: mean survival time, dose: 25.0 mg/kg/injection, schedule: Q01DX009 (ip), vehicle: saline): 6 of 6
- T/C (T/C endpoint: mean survival time, dose: 25.0 mg/kg/injection, schedule: Q03DX003 (ip), vehicle: saline): 141 % of control
- T/C (T/C endpoint: mean survival time, dose: 25.0 mg/kg/injection, schedule: Q04DX003 (ip), vehicle: saline): 141 % of control
- survivor count (T/C endpoint: mean survival time, dose: 40.0 mg/kg/injection, schedule: Q01DX009 (ip), vehicle: saline): 6 of 6
- survivor count [1]: 4 of 6
- T/C (T/C endpoint: mean survival time, dose: 50.0 mg/kg/injection, schedule: Q04DX003 (ip), vehicle: saline): 144 % of control

Compound: CC(O)C(=O)Oc1ccccc1 (configuration not stated)
- survivor count [2]: 0 of 6
- survivor count (T/C endpoint: mean survival time, dose: 800.0 mg/kg/injection, schedule: Q01DX001 (ip), vehicle: other): 0 of 6
- survivor count (T/C endpoint: mean survival time, dose: 1600.0 mg/kg/injection, schedule: Q01DX001 (ip), vehicle: other): 0 of 6

Compound: CC1=CCC=C(CNc2ncnc3nc[nH]c23)C1
- survivor count (T/C endpoint: mean survival time, dose: 200.0 mg/kg/injection, schedule: Q04DX003 (ip), vehicle: saline with Tween-80): 6 of 6
- survivor count [3]: 5 of 6

Compound: O=NN(CCCl)C(=O)NCCO
- T/C (T/C endpoint: mean survival time, dose: 5.0 mg/kg/injection, schedule: Q01DX001 (ip), vehicle: water): 138 % of control
- T/C (T/C endpoint: mean survival time, dose: 12.5 mg/kg/injection, schedule: Q01DX009 (ip), vehicle: water): 127 % of control
- survivor count (T/C endpoint: mean survival time, dose: 25.0 mg/kg/injection, schedule: Q01DX009 (ip), vehicle: water): 6 of 6
- survivor count (T/C endpoint: mean survival time, dose: 40.0 mg/kg/injection, schedule: Q01DX001 (ip), vehicle: water): 6 of 6
- survivor count [4]: 3 of 6 and 5 of 6
- survivor count [5]: 3 of 6
- survivor count [6]: 0 of 6
- survivor count (T/C endpoint: median survival time, dose: 24.0 mg/kg/injection, schedule: Q01DX009 (ip), vehicle: water): 6 of 6
- survivor count (T/C endpoint: median survival time, dose: 25.0 mg/kg/injection, schedule: Q01DX009 (ip), vehicle: water): 5 of 6
- survivor count (T/C endpoint: median survival time, dose: 50.0 mg/kg/injection, schedule: Q01DX009 (ip), vehicle: water): 4 of 6

Compound: O/N=C/c1cccc[n+]1Cc1ccccc1
- survivor count [4]: 0 of 6
- survivor count [5]: 0 of 6
- survivor count [6]: 0 of 6
- survivor count (T/C endpoint: mean survival time, dose: 400.0 mg/kg/injection, schedule: Q01DX009 (ip), vehicle: water): 0 of 6

Compound: CC([NH-])CC[NH-].O=[N+]([O-])O.O=[N+]([O-])O.[Pt+2] (configuration not stated)
- T/C (T/C endpoint: mean survival time, dose: 3.12 mg/kg/injection, schedule: Q04DX003 (ip), vehicle: saline with Tween-80): 132 % of control
- T/C (T/C endpoint: mean survival time, dose: 12.5 mg/kg/injection, schedule: Q04DX003 (ip), vehicle: saline with Tween-80): 148 % of control

Compound: CNC(=O)Oc1ccc(N)cc1
- survivor count (T/C endpoint: mean survival time, dose: 150.0 mg/kg/injection, schedule: Q01DX001 (ip), vehicle: saline): 0 of 6
- survivor count (T/C endpoint: mean survival time, dose: 300.0 mg/kg/injection, schedule: Q01DX001 (ip), vehicle: saline): 0 of 6

Compound: CN(C)CCCNC1CCC(NCCCN(C)C)CC1 (configuration not stated)
- survivor count [1]: 5 of 6
- survivor count (T/C endpoint: mean survival time, dose: 100.0 mg/kg/injection, schedule: Q01DX009 (ip), vehicle: saline): 1 of 6
- survivor count [7]: 6 of 6
- survivor count [8]: 0 of 6

Compound: CC(=O)c1cc(C)[nH]c1C
- survivor count [3]: 5 of 6

Compound: CCCC(=O)Oc1ccc(/C=N/NC(N)=S)nc1
- T/C [9]: 145 % of control
- T/C (T/C endpoint: mean survival time, dose: 200.0 mg/kg/injection, schedule: Q04DX002 (ip), vehicle: saline with Tween-80): 126 % of control
- survivor count [10]: 6 of 6
- T/C [11]: 134 % of control
- survivor count (T/C endpoint: mean survival time, dose: 600.0 mg/kg/injection, schedule: Q01DX009 (ip), vehicle: saline with Tween-80): 5 of 6
- T/C (T/C endpoint: mean survival time, dose: 600.0 mg/kg/injection, schedule: Q04DX003 (ip), vehicle: saline with Tween-80): 129 % of control
- T/C (T/C endpoint: mean survival time, dose: 800.0 mg/kg/injection, schedule: Q04DX002 (ip), vehicle: saline with Tween-80): 146 % of control
- T/C (T/C endpoint: mean survival time, dose: 900.0 mg/kg/injection, schedule: Q04DX003 (ip), vehicle: saline with Tween-80): 140 % of control
- T/C (T/C endpoint: median survival time, dose: 25.0 mg/kg/injection, schedule: Q01DX009 (ip), vehicle: saline with Tween-80): 128 and 132 % of control
- T/C (T/C endpoint: median survival time, dose: 50.0 mg/kg/injection, schedule: Q01DX009 (ip), vehicle: saline with Tween-80): 128 % of control
- T/C (T/C endpoint: median survival time, dose: 277.78 mg/kg/injection, schedule: Q01DX005 (ip), vehicle: saline with Tween-80): 125 % of control

Compound: CC(=O)N/N=C/C(C)(C)C(C)(C)/C=N/NC(C)=O
- survivor count [11]: 0 of 3

Compound: CN(CC(=O)C(C)(C)C)C1CCCCC1
- survivor count [7]: 0 of 4
- survivor count [8]: 0 of 4

Compound: CN(C)c1ccc(N=Nc2cccc(C(=O)[O-])c2)cc1.CN(C)c1ccc(N=Nc2cccc(C(=O)[O-])c2)cc1.NC1CCCCC1N.[Pt+4]
- T/C (T/C endpoint: median survival time, dose: 12.5 mg/kg/injection, schedule: Q04DX003 (ip), vehicle: saline with Tween-80): 135 % of control
- T/C (T/C endpoint: median survival time, dose: 100.0 mg/kg/injection, schedule: Q04DX003 (ip), vehicle: saline with Tween-80): 132 % of control
- survivor count (T/C endpoint: median survival time, dose: 200.0 mg/kg/injection, schedule: Q04DX003 (ip), vehicle: saline with Tween-80): 5 of 6

Compound: O=C[CH2][Hg][Cl]
- survivor count (T/C endpoint: mean survival time, dose: 3.13 mg/kg/injection, schedule: Q01DX009 (ip), vehicle: saline with Tween-80): 3 of 3
- survivor count (T/C endpoint: mean survival time, dose: 6.25 mg/kg/injection, schedule: Q01DX009 (ip), vehicle: saline with Tween-80): 0 of 3
- survivor count (T/C endpoint: mean survival time, dose: 12.5 mg/kg/injection, schedule: Q01DX009 (ip), vehicle: saline with Tween-80): 0 of 3
- survivor count (T/C endpoint: mean survival time, dose: 25.0 mg/kg/injection, schedule: Q01DX009 (ip), vehicle: saline with Tween-80): 0 of 3
- survivor count [9]: 0 of 3

Compound: CC1CCC(C(C)C)C(OC(=O)N/N=C/N(C)C)C1 (configuration not stated)
- survivor count [2]: 1 of 6

Compound: Nc1ccc2c(c1)CN1C(=O)c3ccccc3C1=N2
- survivor count (T/C endpoint: median survival time, dose: 200.0 mg/kg/injection, schedule: Q01DX009 (ip), vehicle: saline with Tween-80): 5 of 6

Compound: NC(=O)C1(Cl)CC2C=CC1C2 (configuration not stated)
- survivor count [7]: 1 of 6
- survivor count [8]: 1 of 6

Compound: C/C(=N\N)c1ccc(Cl)cc1
- survivor count (T/C endpoint: mean survival time, dose: 100.0 mg/kg/injection, schedule: Q01DX009 (ip), vehicle: saline with Tween-80): 1 of 6
- survivor count (T/C endpoint: mean survival time, dose: 200.0 mg/kg/injection, schedule: Q01DX009 (ip), vehicle: saline with Tween-80): 0 of 6
- survivor count [10]: 0 of 6
